# Values of other authors in patent publication US20250241948A1, “Engineered Extracellular Vesicle Delivery Systems and Uses Thereof” (The Texas A&M University System, priority 2020, published 2025).
# At least one structure is not confirmed: it was looked up by name or label, or the drawing left a doubt.
# Settings: cited from earlier work
smiles,measurement,value
"CCCCCCCC/C=C\CCCCCCCC(=O)OCC(C[N+](C)(C)C)OC(=O)CCCCCCC/C=C\CCCCCCCC (stereo not shown) [DOTAP, 1,2-dioleoyl-3-trimethylammonium-propane]",Transition Temp,<5 °C
